# Source: publication PMC7195466, “A common allosteric mechanism regulates homeostatic inactivation of auxin and gibberellin” (Nature Communications, 2020)
# These are yes or no findings as the source states them, for the method shown. In cells and extracts the contact can be indirect. Tags and fused reporters may be left off the sequences shown.
# B1: OsGA2ox6 R332A fused with N- or C-YFP (BiFC) (enzyme, UniProt Q7XP65 1-358)
# chain: MPAFADIAIDPPLADSYRALALLRRDRDGGIAPPAVQMVGSGGAVLERDLPMVDLERLTRGGAGERKACAGAMARAASEWGFFQLTNHGVGRELMEEMRREQARLFRLPFETKEKAGLLNGSYRWGNPTATSLRHLSWSEAFHVPLASISGADCDFGDLTSLRGVMQEVAEAMSRVANTVAAALAEELTGRGGGGASAAPWFPAGCDETTCFLRLNRYPACPFAADTFGLVPHTDSDFLTVLCQDQVGGLHLMKDSRWVAVRPRPDALVVNIGDLFQAWSNNRYKSVEHKVVANAKTDRLSVAYFLCPSYDSLVGTCGEPSPYRAFTFGEYAKKVQEDVRTTGKKIGLPNFFKHSSVQ
# Molecular target: OsGA2ox6 R332A fused with N- or C-YFP (BiFC) (rice (Oryza sativa)) (UniProt Q7XP65)
# Assay: split reporter; BiFC: N-YFP and C-YFP fusions expressed together in rice T65 mesophyll protoplasts; confocal microscopy
binder,measurement,value
B1,binding,no binding
